Measurements published in patent publication US5811391A, “Cyclic CS-1 peptidomimetics, compositions and methods of using same” (Cytel Corporation, priority 1995, dated 1998).
Part of at least one peptide drawing is inferred or uncertain, most often the ends. Residues, ends and D or L forms follow the SMILES beside them. *: point of attachment. Morpholide = C1CN(*)CCO1; PhAc = O=C(Cc1ccccc1)*

Amino acid sequences for entries named in this document (tags omitted). Residues count along the entry.
UniProt P13612, 34-1032: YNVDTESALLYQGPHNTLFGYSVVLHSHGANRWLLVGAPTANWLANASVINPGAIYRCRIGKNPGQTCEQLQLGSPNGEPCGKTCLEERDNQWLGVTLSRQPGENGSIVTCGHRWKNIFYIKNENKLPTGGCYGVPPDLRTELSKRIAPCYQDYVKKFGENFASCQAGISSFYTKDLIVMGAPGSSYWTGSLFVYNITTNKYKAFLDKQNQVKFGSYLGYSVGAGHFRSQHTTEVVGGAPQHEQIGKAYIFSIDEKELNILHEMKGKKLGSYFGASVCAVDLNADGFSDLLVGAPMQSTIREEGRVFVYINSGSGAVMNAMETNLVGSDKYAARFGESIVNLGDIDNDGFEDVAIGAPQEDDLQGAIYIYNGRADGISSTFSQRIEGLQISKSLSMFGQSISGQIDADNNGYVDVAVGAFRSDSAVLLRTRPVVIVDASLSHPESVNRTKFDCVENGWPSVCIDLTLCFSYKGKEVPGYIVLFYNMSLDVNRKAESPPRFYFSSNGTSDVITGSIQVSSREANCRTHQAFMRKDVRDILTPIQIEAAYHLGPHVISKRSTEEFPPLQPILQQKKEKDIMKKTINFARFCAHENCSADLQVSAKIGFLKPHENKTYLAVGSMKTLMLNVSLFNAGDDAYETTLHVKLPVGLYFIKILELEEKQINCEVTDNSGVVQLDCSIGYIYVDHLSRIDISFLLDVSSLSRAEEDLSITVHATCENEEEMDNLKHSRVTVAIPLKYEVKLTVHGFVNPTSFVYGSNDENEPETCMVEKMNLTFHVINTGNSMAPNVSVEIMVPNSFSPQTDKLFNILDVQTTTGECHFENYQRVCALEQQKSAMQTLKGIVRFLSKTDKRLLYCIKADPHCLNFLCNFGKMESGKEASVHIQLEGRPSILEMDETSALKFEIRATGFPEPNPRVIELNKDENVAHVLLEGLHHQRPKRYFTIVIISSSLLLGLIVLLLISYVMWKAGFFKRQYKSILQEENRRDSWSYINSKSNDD

Experiments:
VLA-4/sVCAM-1 = biological target: T1, VLA-4/sVCAM-1 (Homo sapiens, UniProt P05556+P13612); assay: In vitro binding assay: Jurkat cells to solid phase-bound sVCAM-1; type: cell-based; conditions: compared against each other, XLDFp = 1
T1 construct: host or cells: Jurkat cells carry the VLA-4; The sVCAM-1 partner was made in house in transfected human embryonal kidney 293 cells (ATCC CRL 1573)
Description: Assays conducted using sVCAM-1 as solid phase-bound antigen were carried out substantially identically to those using CS-1. The sVCAM-1 polypeptide used had the same amino acid residue sequence as the materials described in Lobb et al., Biochem. Biophys. Res. Commun., 178:1498-1504 (1991) and Cybulsky et al., Proc. Natl. Acad. Sci., USA, 88:7859-7863 (1991). Human embryonal kidney line 293 (ATCC CRL 1573) cells were co-transfected with a plasmid (pCDNAI;invitrogen) containing the sVCAM-1 DNA sequence and plasmid pSV2-neo [Southern et al., J. Mol. Appl. Gen., 1:327-341 ([…])]. Cells were selected in DMEM, 10 percent fetal bovine serum and 600 μg/ml Geneticin. sVCAM-1 was purified from supernatants using a column containing monoclonal antibody P3H12 (anti-human VCAM-1) coupled to Sepharose 4B. The sVCAM-1 was eluted using 0.1M glycine at pH 2.5 following 50 column washes with PBS, pH 7.2. The eluate was immediately neutralized and dialyzed against PBS for use.

VLA-4 = VLA-4 (Homo sapiens, UniProt P05556+P13612); assay: In vitro binding assay: 51Cr-labeled Jurkat cells to solid phase-bound CS-1 peptide (SEQ ID NO:5); type: cell-based; set-up: inflammatory cells that contain the VLA-4 receptor [Jurkat cells; host or cells: Jurkat cells (human T lymphoblastic line)
Description: Binding inhibition is measured here as a concentration of peptide that inhibits one-half the binding between a standard number of Jurkat cells and a standard amount of CS-1 peptide bound to the surface of a microtiter plate well. Those concentrations are conveniently expressed as IC50 values, smaller numbers indicating a lower concentration required to inhibit 50 percent binding and therefore greater potency. Further specifics of this assay are provided hereinafter.
Jurkat cells (ATCC TIB 152), a human T lymphoblastic line, labeled with ^51 chromium were used to assay in vitro binding inhibition provided by various peptides discussed herein.
The plates were prepared as follows: The 25-mer CS-1 peptide (SEQ ID NO:5) dissolved at 0.5-1 μg/ml in a buffer of 0.1M NaHCO3 at pH 9.5 that also contained 10 μg/ml of bovine serum albumin (BSA) or a conjugate of the CS-1 peptide linked to ovalbumin (CS-1-OVA) dissolved at 1-2.5 μg/ml in the same buffer was used as the substrate. Each well of the microtiter plates was coated with 50 μl of substrate or buffer alone for controls. The wells were permitted to dry out completely and were then rinsed twice with PBS at pH 7.4. Non-specific binding sites of each well were then blocked using 200 μl per well of RPMI/1 percent BSA for two hours at room temperature. Both solid phase-affixed substrates provided similar results. […]

CC(C)C[C@H](NC(=O)Cc1ccccc1)C(=O)N[C@@H](CC(=O)O)C(=O)N[C@@H](Cc1ccccc1)C(=O)N1CCOCC1 [XLDFZ, .phi.AcLeuAspPhe-morpholinamide, reference compound] (PhAc-Leu-Asp-Phe-Morpholide)
relative potencies for inhibiting Jurkat cell binding to solid phase-bound sVCAM-1 (VLA-4/sVCAM-1): about 1.3
CS-1 inhibition potencies relative to each other (VLA-4; ratio XLDFZ:XLDFp:SEQ ID NO:7, XLDFp = 1): about 2.7
Potency in inhibiting Jurkat cell binding to CS-1 relative to standard 10-mer of SEQ ID NO:6 (VLA-4; times/fold more potent than SEQ ID NO:6): about 844
